Taken from: PubChem BioAssay AID1259254 (NCATS, 2017)

- Assay: 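Gene knock-downs that lead to re-replication, shown by excess G2 DNA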 (primary screen)
- System: human HCT116 colorectal cancer cells
- Knock-down reagent: single siRNA against human genes
- Duration: 3 days
- Detection: 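Nuclei stained with Hoechst and imaged; cell-cycle phase assigned by DNA content; G2 share scaled per plate, non-targeting siRNA 0%, GMNN siRNA 100%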
- Scale: G2 robust z-score: higher = more G2 cells, more excess DNA replication
- Hit rule: 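Active siRNAs have a G2 robust z of 5 or more median absolute deviations over the median, which in these data means about 38% or higher of GMNN control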
This is one part, drawn at random, of about 59,000 reagents. In the full data, about 1,550 (2.6%) were called active. 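G2 share is only a proxy for re-replication; each gene was hit by three separate siRNAs, and active genes were retested.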 Unmarked entries are inactive. The numbers tell different reagents against one gene apart. Not all columns of the deposit are shown. Not stated in the record: the amount of reagent.

Gene | reagent | G2 robust z-score
DDO | 1 | -0.71
DDO | 2 | -0.547
DDO | 3 | -0.789
MYT1L | 1 | -1.22
MYT1L | 2 | -0.705
MYT1L | 3 | 1.37
EEF2 | 1 | -0.618
EEF2 | 2 | 0.264
EEF2 | 3 | -1.51
ORC3 | 1 | 0.393
ORC3 | 2 | 2.5
ORC3 | 3 | -0.582
ZNF234 | 1 | 1.83
ZNF234 | 2 | -0.351
ZNF234 | 3 | 0.226
LOC642335 (retired record) | 1 | 0.141
LOC642335 (retired record) | 2 | 0.0857
LOC642335 (retired record) | 3 | -0.331
CLMP | 1 | -0.658
CLMP | 2 | -0.607
CLMP | 3 | 0.0237
RPL10P17 | 1 | 2.07
RPL10P17 | 2 | -0.63
RPL10P17 | 3 | 0.841
PBXIP1 | 1 | 1.52
PBXIP1 | 2 | -0.972
PBXIP1 | 3 | 0.325
TCN2 | 1 | 2.21
TCN2 | 2 | -0.556
TCN2 | 3 | 0.000348

2 neighbouring reagents already listed, for reference:
Gene | reagent | G2 robust z-score
LOC642335 (retired record) | 1 | 0.141
LOC642335 (retired record) | 2 | 0.0857
